According to ChEMBL document CHEMBL3046649, “Fungitoxic and Phytotoxic Activities of Cinnamic Acid Esters and Amides” (2000):

What was measured:
Format in all cases: functional
[1] = test system: Brassica rapa subsp. chinensis; test: whole plant or invertebrate; settings: 72 h, read-out: GI
[2] = test system: Athelia rolfsii; test: microbe, parasite or virus in culture; settings: Agroathelia rolfsii, read-out: GI;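 note: mycelial growth inhibition of the fungus, determined with an agar dilution method and read 4–5 days after treatment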
[3] = test system: Brassica rapa subsp. chinensis; test: whole plant or invertebrate; settings: 72 h, read-out: GI; remark: listed apart in the source
[4] = test system: Pythium; test: microbe, parasite or virus in culture; settings: read-out: GI;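 note: agar dilution test on Pythium sp., inhibition of mycelial growth scored after 4–5 days of incubation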

O=C(/C=C/c1ccccc1)Nc1ccccc1O [N-(2-HYDROXYPHENYL)CINNAMAMIDE]
inhibition of growth at 100 ppm [1]: 0% | inhibition of growth at 100 ppm [2]: 12% | inhibition of growth at 100 ppm [3]: 0% | inhibition of growth at 100 ppm [4]: 24%
